Source: publication PMC10673202
No constants are given. Whether binding was seen depends on the method and setting. In cells and extracts the contact can be indirect. Some binding calls cover weakened binding; strength is not graded here.

By UniProt entry, the sequences of proteins in these tests, tags left out.
UniProt P29466: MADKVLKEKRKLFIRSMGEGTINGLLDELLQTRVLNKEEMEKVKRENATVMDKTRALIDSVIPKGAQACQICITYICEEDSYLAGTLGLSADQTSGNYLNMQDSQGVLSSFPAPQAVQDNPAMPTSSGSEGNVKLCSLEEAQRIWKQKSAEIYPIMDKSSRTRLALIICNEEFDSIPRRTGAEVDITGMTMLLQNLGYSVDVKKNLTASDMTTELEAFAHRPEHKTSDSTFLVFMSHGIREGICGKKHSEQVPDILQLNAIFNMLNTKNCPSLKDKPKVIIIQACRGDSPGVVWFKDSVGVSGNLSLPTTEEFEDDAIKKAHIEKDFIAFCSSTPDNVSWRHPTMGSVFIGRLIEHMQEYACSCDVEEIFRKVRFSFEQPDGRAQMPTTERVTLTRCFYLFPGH
UniProt Q9ULZ3: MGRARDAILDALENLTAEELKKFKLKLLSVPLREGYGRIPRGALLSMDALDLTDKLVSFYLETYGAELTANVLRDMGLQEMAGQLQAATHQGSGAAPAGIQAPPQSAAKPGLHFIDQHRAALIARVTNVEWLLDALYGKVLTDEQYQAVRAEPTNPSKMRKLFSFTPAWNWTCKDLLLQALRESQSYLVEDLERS

Molecular target: Flag-tagged pro-caspase-1 (UniProt P29466)
Assay: co-IP

HA-tagged ASC (from UniProt Q9ULZ3 1-195)
binding: binds
